PubChem BioAssay AID2685 (National Center for Advancing Translational Sciences (NCATS), 2010)
This is one part of the list. These are further read-outs of the screen, such as a control signal, another cell line or another target. No call is given for them. Compounds called inactive in the main read-out are mostly missing here. Words in brackets tell the shape of the fitted curve; partial curves, single points and poor fits give uncertain potencies.

Assay: qHTS Assay for Lipid Storage Modulators in Drosophila S3 Cells;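 as to cell number change: cells counted by Cell Tracker Red CMTPX staining in the red channel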
Settings: BODIPY lipid droplet fluorescence, 18-24 h; for cell number change: measured here: cell count max response, cells fed with added oleic acid
In short: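 Drosophila S3 cells got compounds at several concentrations plus oleic acid (400 uM solution). Laser-scanning cytometry with 488 nm excitation read lipid droplets at 500-530 nm and cells at 575-640 nm. Percent activity was relative to 20 uM Triacsin C.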

[1] = measured here: cell number channel AC50, cells fed with added oleic acid
[2] = measured here: lipid fluorescence (Fed channel) AC50, cells fed with added oleic acid

| Compound | cell number change [%] | AC50 [1] | AC50 [2] |
| --- | --- | --- | --- |
| O=C(Nc1ccccc1)c1ccccc1Oc1ccc(C(F)(F)F)cc1[N+](=O)[O-] | 98.7 | 4.11 µM [rising, full curve] | 7.31 µM [rising, partial curve] |
| O=C1CCCC(O)=C1N=Nc1c(Cl)cc(C(F)(F)F)cc1Cl | -27.1 |  | 16.4 µM [falling, single point] |
| COc1cc(C)nc(NS(=O)(=O)c2ccc(C)cc2)n1 | -17.5 |  |  |
| CSCCC(NS(=O)(=O)c1cccc(C(F)(F)F)c1)C(=O)N(C)CCOc1ccc(Cl)cc1 (stereo unspecified) | 22 |  | 29.1 µM [rising, single point] |
| CC(=O)c1c(C)[nH]c(C(=O)Nc2cc(C)ccc2C)c1C | -8.97 |  | 0.00517 µM [rising, full curve, poor fit] |
| CCOc1cc(/C=C2\SC(=NC)N(C)C2=O)c(Br)cc1OC(C)=O | -26.9 |  | 20.6 µM [falling, single point] |
| O=C(O)C1CC=CCC1C(=O)Nc1ccc(Oc2ccc(Cl)cc2)cc1 (stereo unspecified) | 7.3 | 2.91 µM [rising, partial curve] | 3.66 µM [rising, single point] |
| N/C(=N\c1nc(CSc2nnnn2-c2ccccc2)cc(=O)[nH]1)Nc1ccccc1 | 17.1 |  |  |
| CCCn1c(SCC(=O)NNC(=O)c2ccc(C)cc2)nnc1C(C)C | 7.69 |  | 29.1 µM [falling, single point] |
| Cc1ccccc1N1C(=O)c2cccc3c(N(C)CCO)ccc(c23)C1=O | -54.5 | 25.9 µM [falling, partial curve, poor fit] |  |
| Cc1cccc(OC(=O)Cn2c(C(F)(F)F)nc3ccccc32)c1 | 1.12 | 0.58 µM [falling, single point] |  |
| COC(=O)c1ccc(N2CCc3ccccc32)c([N+](=O)[O-])c1 | -67 | 29.1 µM [falling, single point] | 29.1 µM [falling, single point] |
| OC(CN1CCC(Cc2ccccc2)CC1)c1ccccc1 (stereo unspecified) |  | 6.51 µM [falling, single point] | 6.51 µM [falling, single point] |
| O=C1C=C(c2ccc(Cl)cc2)C(=O)N1Nc1ccccc1 | -85.3 | 10.3 µM [falling, partial curve] | 0.13 µM [falling, full curve, poor fit] |
| CCN1CCN(c2nc3c(C)cccn3c(=O)c2C=C(C#N)C#N)CC1 | -40.8 | 29.1 µM [falling, single point] | 29.1 µM [falling, single point] |
| CCN(CC)S(=O)(=O)c1ccc(Cl)c(C(=O)Nc2cc(C)nn2-c2ccccc2C(F)(F)F)c1 | -0.834 |  | 16.4 µM [falling, single point] |
| Cc1ccc(CN2C(=O)c3ccccc3C2C(=O)NCC2CCCO2)cc1 (stereo unspecified) | 27.2 |  |  |
| CCCCn1c(N)c(N(CCOC)C(=O)c2cc3c(s2)CCC3)c(=O)[nH]c1=O | 13 |  |  |
| CNC(=O)c1[nH]cnc1C(=O)NCC(=O)OCc1ccccc1 | 26 |  |  |

| Compound | cell number change [%] | AC50 [1] | AC50 [2] |
| --- | --- | --- | --- |
| COc1cc2c(CCNC(C)=O)c[nH]c2cc1Cl | 33.1 | 16.4 µM [rising, partial curve, poor fit] | 20.6 µM [rising, partial curve] |
| Cn1c(=O)c2c(nc(CN3CCc4ccccc4C3)n2Cc2cccc(Cl)c2)n(C)c1=O |  | 2.31 µM [rising, partial curve] | 0.116 µM [rising, full curve, poor fit] |
| COc1ccc(OCCNc2c([N+](=O)[O-])c(=O)oc3ccccc23)cc1 | 29 | 0.291 µM [rising, full curve, poor fit] |  |
| CCn1cc(S(=O)(=O)N2CCN(Cc3cccc(Cl)c3)CC2)cn1 | -17.1 |  | 0.794 µM [falling, single point] |
| COc1ccc(CCn2c(C)nc3c(c(=O)c4ccccc4n3C)c2=O)cc1 | -19.8 |  |  |
| Cc1ccc(S(=O)(=O)N2CCC(C(=O)NC3CC(C)(C)NC(C)(C)C3)CC2)cc1C | 32.6 |  |  |
| CCOc1cc(C(=O)Nc2cccnc2)cc(OCC)c1OCC | 16.6 |  | 29.1 µM [falling, single point] |
| c1ccc(CSc2nnnn2-c2ccc3c(c2)OCCO3)nc1 | 32.8 | 0.411 µM [rising, full curve] | 29.1 µM [rising, single point] |
| O=C(Nc1ccc2oc(-c3ccccc3F)nc2c1)c1ccccc1F | -5.17 |  | 11.6 µM [falling, partial curve, poor fit] |
| CN(C)C(=S)Nc1ccc(Cc2ccncc2)cc1 | -13.4 |  | 0.092 µM [falling, full curve] |
| O=C(/C=C/c1ccco1)NCc1ccc(F)cc1 | -4.6 |  | 20.6 µM [falling, single point] |
| O=C(C1CCCO1)N(c1ccc(F)cc1)C1C=CS(=O)(=O)C1 (stereo unspecified) | -10.5 | 3.66 µM [falling, single point] | 6.51 µM [falling, single point] |
| NC(=S)n1[nH]c(-c2ccc([N+](=O)[O-])cc2)c(N=Nc2ccccc2[N+](=O)[O-])c1=O | -3.63 |  |  |
| COC(=O)c1ccc(S(N)(=O)=O)o1 | -12.7 |  | 6.51 µM [falling, single point] |
| Cc1cc(S(=O)(=O)N2CCN(Cc3ccccc3)CC2)c(C)s1 | 25.8 |  | 18.4 µM [rising, partial curve, poor fit] |
| O=c1[nH]c(N2CCc3ccccc32)nc2c1CCCC2 | -130 | 29.1 µM [falling, single point] | 29.1 µM [falling, single point] |
| NS(=O)(=O)c1ccc(CNC(=O)NC2(c3ccccc3)CC2)cc1 | -49.4 | 0.731 µM [falling, full curve] | 1.16 µM [falling, full curve] |
| COC(=O)C1=C(C)OC(N)=C(C#N)C1c1cccnc1 (stereo unspecified) | 50.4 | 1.03 µM [rising, partial curve] |  |

2 records drawn at random from the list so far:

| Compound | cell number change [%] | AC50 [1] | AC50 [2] |
| --- | --- | --- | --- |
| COc1ccc(OCCNc2c([N+](=O)[O-])c(=O)oc3ccccc23)cc1 | 29 | 0.291 µM [rising, full curve, poor fit] |  |
| O=C(/C=C/c1ccco1)NCc1ccc(F)cc1 | -4.6 |  | 20.6 µM [falling, single point] |
